Paper PMC7067766

Assays:
[1] = biological target: GST-FHR wild type (residues 25-249) (T. brucei (Lister 427)); assay: pull-down; GST fusion protein (1 mg) on glutathione-sepharose 4B, incubated with 1 ml serum for 60 min, 3 rapid PBS washes; eluate on SDS-PAGE, band identified by mass spectrometry; only the target purified
[2] = biological target: GST-FHR mutant 2 (E31A, Q34A) (T. brucei (Lister 427)); assay: as above
[3] = biological target: GST-FHR mutant 1 (K46A, R47A) (T. brucei (Lister 427)); assay: as above
[4] = biological target: GST-Tb927.5.4020 (GST-FHR, residues 25-251) (T. brucei (TREU 927)) (UniProt Q57Z47); assay: as above
[5] = biological target: FHR residues 25-251 for crystallography (T. brucei (TREU 927)) (UniProt Q57Z47); assay: crystal structure; FHR and FH domain 5 mixed 1 : 1.05, complex purified by SEC; crystals at 18 °C, pH 5.5; 2.70 Å; both purified
[6] = biological target: FHR on the surface of T. brucei procyclic forms (FHR+/+ PCFs) (T. brucei (endogenous in strain J10 PCFs)); assay: live-cell binding assay (fluorescence microscopy); 100 nM fluorescently labelled bovine FH added to PCFs in culture for 2 h, cells then fixed and visualized; FHR-/- cells as control; only the binder purified

B1: bovine complement factor H from serum (protein, UniProt Q28085 19-1236)
chain: EDCKEPPPRKETEILSGSWTEQTYQEGTQATYKCRPGYRTLGSIVMMCRGGKWVSLHPSRICRKKPCAHPGDTPFGSFHLAEGTQFEYGAKVVYTCDEGYQMVGEMNFRECDTNGWTNDIPICEVVKCLPVTEPENGKIFSDALEPDQEYTYGQVVQFECNSGYMLDGPKQIHCSAGGVWSAETPKCVEIFCKTPVILNGQAVLPKATYKANERVQYRCAAGFEYGQRGDTICTKSGWTPAPTCIEITCDPPRIPNGVYRPELSKYRGQDKITYECKKGFFPEIRGTDATCTRDGWVPVPRCAWKPCSYPVIKHGRLYYSYRGYFPARVNQQFVYSCDHHFVPPSQRSWDHLTCTAEGWSPEEPCLRQCIFNYLENGHTPYREEKYLQGETVRVRCYEGYSLQNDQNTMTCTESGWSPPPRCIRVKTCSKSNIRIENGFLSESTFTYPLNKQTEYKCKPGYVTADGKTSGLITCLKNGWSAQPVCIKSCDRPVFEKARVKSDGTWFRLNDRLDYECVDGYENRDGRTTGSIVCGQDGWSDKAACYERECSIPEMDPYLNAYPRKETYKVGDVLKFSCSQGRIMVGADSVQCYHFGWSPKLPTCKVKKVKSCALPPELPNGKRKEIHKEEYAHNEVVEYACNPRFLMKGSHKIQCVDGEWTALPVCIEEERTCGNIPDLDHGDVKPSVPPYHHGDSVEFSCREAFTMIGPRFITCISGEWTQPPQCIATDELRKCKGSTLFPPEGRQAHKIEYDHNTNKSYQCRGKSEHKHSICINGEWDPKVDCNEEAKIQLCPPPPQVPNACDMTTTVNYQDGEKISILCKENYLIQDAEEIVCKDGRWQSIPRCIEKIGCSQPPQIDHGTISSSSSAEERREIHEQRLYAHGTKLSYTCEEGFEISENNVIICHMGKWSSPPQCVGLPCGLPPYVQNGVVSHKKDRYQYGEEVTYDCDEGFGTDGPASIRCLGGEWSRPQDCISTNCVNLPTFEDAVLTDREKDFYRSGEQVAFKCLSYYQLDGSNTIQCIKSKWIGRPACRDVSCGNPPQVENAIIHNQKSKYQSEERARYECIGNYDLFGEMEVVCLNGTWTEPPQCKDSQGKCGPPPPIDNGDITSLLQSVYPPGMIVEYRCQAYYELRGNKNVVCRNGEWSQLPKCLEACVISEETMRKHHIQLRWKHDKKIYSKTEDTIEFMCQHGYRQLTPKHTFRATCREGKVVYPRCG
binding [1]: binds | binding [2]: no binding | binding [3]: binds | binding [4]: binds

B2: bovine FH domain 5 (residues 264-323), tags removed, for crystallography (domain or fragment, UniProt Q28085 264-323)
chain: EITCDPPRIPNGVYRPELSKYRGQDKITYECKKGFFPEIRGTDATCTRDGWVPVPRCAWK
binding [5]: binds

B3: fluorescently labelled bovine FH purified from serum (protein, UniProt Q28085 19-1236)
chain: B1 chain
modifications: fluorescently labelled
binding [6]: binds

No constants are given. Whether binding was seen depends on the method and setting. For part of these data: A result given as binding can be weak or reduced; the word gives no strength. For part of these data: Sequences can lack the tags named with a protein. For part of these data: In cells and extracts the contact can be indirect.
